According to paper PMC12040169 (PLOS Biology, 2025):
The list shows a part of the results.

Each compound was assayed on T1, CTL2-GFP (C. trachomatis L2/434/Bu, GFP-expressing). Settings: bulk GFP, single well; 28.5 h, 10 µM; inhibitor.
T1 construct: L2/434/Bu, GFP-expressing
Set-up: species or system HeLa; Intracellular C. trachomatis growth in HeLa cells, bulk GFP fluorescence relative to DMSO

Point of comparison: `CC(=O)N1CCc2cc(C(O)CN3CCCC4CCCCC43)ccc21` (stereo not drawn) [CBK282924], “% of control remaining” value 111.16%. Against it:
- O=C(Nc1nccc(N2CCNCC2)n1)C1CCCC1 [CBK004302T] — lower, 80.0435%
- O=C(NCCc1ccccc1)N(Cc1ccc(-c2ccccc2)cc1)CC1CCNCC1 [CBK049792] — lower, 98.2779%
- O=C(O)CCc1ccc(-c2ccc(F)cc2)n1NC(=O)c1ccco1 [CBK268853] — higher, 117.775%
- O=C(Nc1ccccc1)N[C@H]1CO[C@H]2[C@@H]1OC[C@H]2OC(=O)Nc1ccccc1 [CBK289465] — higher, 115.29%
- N#Cc1ccc(-c2cc(N3CCN(C(=O)c4ccco4)CC3)ncn2)cc1 [CBK037813] — higher, 135.807%
- Cc1ccc(CN2C[C@H]3C(=O)Nc4ccccc4C(=O)N[C@@]3(C)C2)o1 [CBK284706] — lower, 106.036%
- COc1ncc(-c2nc(NC(=O)Cc3cc(F)c(F)c(F)c3)cnc2-c2cccc(C)c2)c(OC)n1 [CBK036717] — higher, 126.772%
- Cc1cnn(CC(=O)N2CCCCC2CN2CCCCCC2)c1 (stereo not drawn) [CBK282103] — higher, 139.711%
- Cc1ccc(C2c3c(oc4ccccc4c3=O)C(=O)N2CCCCCC(=O)O)cc1 (stereo not drawn) [CBK287158] — higher, 122.363%
- COc1ccc(CCCC(=O)Nc2cc3ccccc3c(N3CCNCC3)n2)cc1OC [CBK028417T] — lower, 100%
- O=C(CCc1ccc(F)cc1)N1CCCC(c2cccc(Cc3ccccc3F)n2)C1 (stereo not drawn) [CBK286512] — lower, 110.212%
- Cc1cc(NC(=O)CN2CC(C(=O)N3CCN(c4ccccc4)CC3)C2)no1 [CBK285665] — lower, 99.9657%
- CC(Oc1ccccc1)C(=O)Nc1ccc(C(=O)O)cc1 (stereo not drawn) [CBK287154] — lower, 103.249%
- Fc1ccc2c(ccn2CCCN2CCN(c3ccncc3)CC2)c1 [CBK043645G] — higher, 113.73%
- C(=N\c1ccc(Cc2ccncc2)cc1)/c1ccc(/C=N/c2ccc(Cc3ccncc3)cc2)cc1 [CBK262137] — lower, 100%
- CN1CCc2c(sc3c2C(=O)NC(/C=C\c2ccc([N+](=O)[O-])cc2)N3)C1 (stereo not drawn) [CBK262909] — higher, 112.561%
- CC(=O)N1CC(C(=O)N2CC3(CCCC3)c3c(F)cccc32)C1 [CBK306292] — lower, 96.7769%
- Cc1ccc(OCC(=O)Nc2ncc(Cc3ccc(F)cc3)s2)cc1 [CBK293930] — higher, 145.584%
- Cc1cccc(C)c1NC(=O)CC(C(=O)O)N(C)C (stereo not drawn) [CBK267022] — higher, 165.657%
- CN(C)CCN(C)C(=O)c1ccc(-c2ccccc2CO)nc1N(C)C [CBK076591] — lower, 100%
- O=C(CSc1nnc(-c2ccccc2O)o1)c1ccc(Cl)cc1 [CBK068032] — lower, 72.6052%
- Cc1ccccc1-c1ccccc1CC1(C(=O)N(C)C)CCN(C(=O)C2CC=CCC2)CC1 (stereo not drawn) [CBK285733] — lower, 104.082%
- CCOC(=O)C1CCCN(CCC(=O)Nc2cccc(F)c2)C1 (stereo not drawn) [CBK264275C] — lower, 96.5519%
- COC(=O)c1cccc(Cn2cc(/C=C\[N+](=O)[O-])c3ccccc32)c1 [CBK269020] — lower, 79.0002%
- COc1ccc(C(=O)Nc2ccc(N3CCN(C(=O)C(C)(C)C)CC3)cc2)cc1OC [CBK270245] — higher, 155.793%
- Cc1ccc2nsnc2c1NC(=O)CN1CCN(c2ccc(F)cc2)CC1 [CBK269231] — lower, 107.231%
- COc1ccc(CC(=O)Nc2cccc(OC(F)(F)F)c2)cc1OC [CBK296734] — lower, 98.3541%
- O=C(COc1ccccc1)NCc1ccc(OC2CCNCC2)cc1 [CBK028425T] — higher, 112.002%
- CCC(O)Cn1nc(CCSC)nc1-c1cn(C)c(=O)[nH]c1=O (stereo not drawn) [CBK306588] — lower, 91.6631%
- Cn1c(=O)n(C)c2cc(S(=O)(=O)NCC3(N)CCOCC3)ccc21 [CBK306266] — higher, 127.153%
- OCCN1CCN(c2nccnc2-c2ccncc2)CC1 [CBK038084] — higher, 119.167%
- Cc1ccc(CN(C2CCN(C)CC2)S(=O)(=O)c2ccc(F)cc2F)cc1 [CBK160448T] — higher, 145.004%
- Cc1ccc(C(=O)COC(=O)c2cccc(C)c2O)cc1[N+](=O)[O-] [CBK264081] — higher, 123.421%
- CCC(C)(C)c1ccc(S(=O)(=O)N2CCCN(Cc3ccc4cccc(O)c4n3)CC2)cc1 [CBK063051] — lower, 107.753%
- Cc1[nH]c(=O)[nH]c(=O)c1CC(=O)N1CCCCC1CN1CCCCC1 (stereo not drawn) [CBK286344] — lower, 92.7113%
- Cc1oc(-c2ccc(Cl)cc2)cc1C(=O)CC#N [CBK047603] — higher, 134.295%
- CCOc1ccc(-c2nc(N)ncc2Oc2ccc(OC)cc2)c(O)c1 [CBK288105] — higher, 144.579%
- O=C(Nc1nc2c(Br)cccc2s1)c1nc2ccccc2s1 [CBK287619] — higher, 161.241%
- O=C(Nc1ccc2c(c1)OCCO2)N1CCN(c2ccccc2)CC1 [CBK155187] — higher, 163.189%
- Cc1nc(Nc2ccc(Cl)cc2)nc(N2CCN(C)CC2)n1 [CBK023855] — higher, 147.93%
- CN(C)CCCN1C(=O)C(O)=C(C(=O)c2ccncc2)C1c1ccccc1 (stereo not drawn) [CBK287779] — lower, 100.486%
- Clc1ccc(Nc2ncnc3c2cnn3-c2ccc(Cl)cc2)cc1 [CBK287356] — higher, 133.832%
- CCOC(=O)c1c(NC(=O)Cn2cnc([N+](=O)[O-])n2)sc2c1CCC(C)C2 (stereo not drawn) [CBK263058] — lower, 84.6318%
- Cc1cnc2c(N3CCCC3)nc(-c3cccnc3)cn12 [CBK092277] — higher, 119.158%
- O=C1NC(=O)c2c(NC(=O)C3CCCCC3)cccc21 [CBK019837] — higher, 126.812%
- c1cnc(N2CCCC2)c(Sc2nc[nH]n2)n1 [CBK093737] — higher, 112.839%
- C=C[C@H]1C[N@@]2CC[C@H]1C[C@@H]2CNS(=O)(=O)c1ccc(NC(C)=O)cc1 [CBK288749] — higher, 121.101%
- Ic1cnn(Cc2nc(-c3ccccc3)no2)c1 [CBK269901] — higher, 116.546%
- C=CCNC(=O)CSc1nc2sc(C)c(C)c2c(=O)[nH]1 [CBK287350] — lower, 105.528%
- O=C(Cn1ccc2ccnc(-c3cccs3)c21)NCc1ccncc1 [CBK284734] — higher, 118.107%
- CN1CCN(c2cccc(-c3cc4ccccc4s3)n2)CC1 [CBK037019] — higher, 163.04%
- CC1CCCC(C)N1CC(O)COc1ccc(/N=C/c2ccccc2)cc1 (stereo not drawn) [CBK261764] — higher, 115.565%
- COc1ccccc1-c1cc2nc(C)cc(N3CCOCC3)n2n1 [CBK304532] — lower, 107.277%
- Fc1ccccc1CN1CCC(Oc2nccnc2OCC2COc3ccccc3O2)CC1 (stereo not drawn) [CBK082979T] — lower, 110.049%
- COc1ccc(CCN(C)C(=O)CCCc2cc3ccccc3[nH]2)cc1OC [CBK051152] — higher, 160.36%
- NS(=O)(=O)c1ccc(Nc2nc(-c3cccs3)cs2)cc1 [CBK262502] — higher, 124.325%
- CC(=O)Nc1cccc(NC(=O)c2cc(-c3ccncc3)nc3ccc(Cl)cc23)c1 [CBK267773] — lower, 109.396%
- Cc1ccccc1-c1ccccc1CC1(C(N)=O)CCN(C(=O)CC2CCCCC2)CC1 [CBK285723] — higher, 123.775%
- CN(C)CCCNC(=O)c1cccc(Nc2cncc(-c3ccc(O)cc3)n2)c1 [CBK122669] — higher, 137.419%
- COc1ccc(-c2nc(NC(=O)c3ccc(S(N)(=O)=O)cc3)cnc2-c2cccc(C)c2)cc1 [CBK037559] — higher, 188.501%
- Cc1ccc(-n2c(SCC(=O)N3CCOCC3)nnc2-c2ccccc2O)c(C)c1 [CBK269112] — higher, 137.588%
- CC(=O)NCC(=O)N1CCC[C@@H]2[C@H]1CCCCc1ccccc1OCC(=O)N2C [CBK292011] — lower, 81.7838%
- CN(Cc1ccc(-c2ccc(S(C)(=O)=O)cc2)nc1)C1CCN(C(=O)CC2CCCCC2)CC1 [CBK164105T] — lower, 104.217%
- OCc1ccccc1-c1cn2ccnc2c(N[C@@H]2CCN(Cc3ccccc3)C2)n1 [CBK037969] — higher, 173.494%
- OCc1ccc(-n2cc(-c3ccc(F)cc3F)nn2)cc1 [CBK112982] — higher, 130.186%
- CCn1c2ccccc2c2cc(C#N)c(=O)[nH]c21 [CBK013595] — higher, 115.423%
- COc1ccccc1CC(=O)N1CCC(Cc2ccc(-c3ccccc3)cc2)(C(N)=O)CC1 [CBK285777] — higher, 144.106%
- O=C(NCCc1nc2cccnc2n1-c1ccccc1)c1ccncc1 [CBK288599] — lower, 105.187%
- COc1cc(C)c(C)cc1S(=O)(=O)n1ccnc1C [CBK287579] — lower, 104.47%
- O=c1c2snc(-c3ccc(F)cc3)c2ncn1C1CC1 [CBK282859] — lower, 81.4777%
- Cc1cc(O)ccc1C(CC(=O)O)c1ccccc1 (stereo not drawn) [CBK013350] — higher, 141.289%
- CC(=O)Nc1cc(S(=O)(=O)N2CCOCC2)c(Br)cc1C [CBK034334] — higher, 154.531%
- CN(C)CCN(C)c1ccc(-c2ccc(F)c(Cl)c2)cn1 [CBK036979] — higher, 172.495%
- O=C(CCn1c(=O)oc2ccccc21)N1CC=C(c2ccc(F)cc2)CC1 [CBK295602] — higher, 137.182%
- CN(C)CCCNC(=O)c1ccnc(/C=N/O)c1 [CBK288434] — higher, 113.937%
- O=C(O)c1sc2ncccc2c1NS(=O)(=O)c1ccc(C(F)(F)F)cc1[N+](=O)[O-] [CBK050647] — lower, 95.9685%
- CC(=O)Nc1ccc2nc(NC(=O)c3ccc4c(c3)OCCO4)sc2c1 [CBK287571] — lower, 90.4678%
